# At least one compound was matched to its structure with a doubt left.
# System: Balb/c male mice, CAIA model
# Assay type: in vivo, mouse
# Conditions: regimens as Table 8
# Description: Collagen-antibody induced arthritis (CAIA) is a simple mouse model of human rheumatoid arthritis (RA) induced by the systemic administration of a cocktail of monoclonal antibodies directed against conserved auto-antigenic collagen type II epitopes, followed by a single injection of lipopolysaccharide (LPS). CAIA is a useful model to study the effector inflammatory phase of arthritis without involving the priming phase of the immune response. The murine CAIA model shares several clinical, immunological and pathological features with RA. Therefore, this model is useful to study the pathogenic mechanisms involved in RA disease as well as for testing new therapies.
# Balb/c male mice aged 7-8 weeks were supplied by Envigo. The animals were acclimated during 12 days. […]
# On day 5 after sensitization, the rest of the animals developing clinical signs of arthritis (n=18) were evaluated and distributed in base of CAIA+incidence. […]
# The arthritis score was determined using the criteria of Table 9. […]
# Body weights were registered daily from days 0-12 in C4BPd3 and from days 5-12 in CAIA control, dexamethasone and Enbrel® groups. Arthritis scores were determined by the same observer in order to avoid observer bias. […]
# Animals were anesthetized with isoflurane. Ankles and wrists thickness were measured using a dial thickness gauge. […]
smiles,measurement,setting,value
C[C@@H]1C[C@H]2[C@@H]3CCC4=CC(=O)C=C[C@]4(C)[C@@]3(F)[C@@H](O)C[C@]2(C)[C@@]1(O)C(=O)CO [dexamethasone],wrist thickness vs. CAIA control,day 12,No changes
same,arthritis scores / progression of arthritis,vs CAIA control group,significantly reduced clinical signs of arthritis from day 7 to 12

# Source: patent US12006343B2, “C4BP-based compounds for treating immunological diseases” (FUNDACIO INSTITUT D'INVESTIGACIO BIOMEDICA DE BELLVITGE …, priority 2017, dated 2024)
